Measurements reported in PubChem BioAssay AID1159584 (Peter MacCallum Cancer Centre, 2016).
This is an unselected part of about 18,000 reagents. Further read-outs or replicates are left out here. Not stated in the record: the amount of reagent, the time to read-out.

Screen: 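Genes whose loss is lethal only together with E-cadherin loss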 (primary screen)
System: human MCF10A breast epithelial cells, parental and CDH1-null
Reagent: siRNA against human genes
Read-out: 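ATP luminescence (CellTiter-Glo) viability per line relative to mean mock wells over all plates, and the ratio of CDH1-null to parental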
Scale: CDH1-null / parental viability ratio: higher = CDH1-null cells survive relatively better than parental; CDH1-null viability vs mock: higher = more viable CDH1-null cells

Gene | CDH1-null / parental viability ratio | CDH1-null viability vs mock (fraction of mock)
SULT1C3 (sulfotransferase family 1C member 3) | 0.83 | 0.78
SLC38A6 | 1.38 | 1.05
FAM13A (family with sequence similarity 13 member A) | 1.07 | 0.86
DENND1C (DENN domain containing 1C) | 0.85 | 0.58
MTERF1 (mitochondrial transcription termination factor 1) | 0.65 | 0.55
SOX8 (SRY-box transcription factor 8) | 1.11 | 0.8
MAEA (macrophage erythroblast attacher, E3 ubiquitin ligase) | 1.34 | 0.99
ARRDC4 (arrestin domain containing 4) | 1.37 | 1.04
FABP1 (fatty acid binding protein 1) | 0.92 | 0.77
CKM (creatine kinase, M-type) | 0.65 | 0.6
THRSP (thyroid hormone responsive) | 0.86 | 0.62
RPL9 (ribosomal protein L9) | 1.56 | 0.53
RAD18 (RAD18 E3 ubiquitin protein ligase) | 0.96 | 0.94
CTBP1 (C-terminal binding protein 1) | 0.9 | 0.69
DEFB135 (defensin beta 135) | 0.84 | 0.77
CACNG7 (calcium voltage-gated channel auxiliary subunit gamma 7) | 1.12 | 0.9
MANF (mesencephalic astrocyte derived neurotrophic factor) | 1.02 | 0.86
C2orf78 (chromosome 2 open reading frame 78) | 0.94 | 0.93
CELF6 (CUGBP Elav-like family member 6) | 1 | 0.8
PLGLB1 (plasminogen like B1) | 0.93 | 0.54
KIAA0319L (KIAA0319 like) | 1.13 | 0.77
PSMA6 (proteasome 20S subunit alpha 6) | 1.67 | 0.5
DHRS4L1 (dehydrogenase/reductase 4 like 1 (pseudogene)) | 1.01 | 0.82
CTSV (cathepsin V) | 1.18 | 0.9
NPHP3 (nephrocystin 3) | 0.9 | 0.86
CCDC167 (coiled-coil domain containing 167) | 1.06 | 0.57
ZFAND6 (zinc finger AN1-type containing 6) | 1 | 0.96
CSTF2 (cleavage stimulation factor subunit 2) | 1.39 | 0.99

In a second layout: results already given.
Gene	CDH1-null / parental viability ratio	CDH1-null viability vs mock (fraction of mock)
CKM (creatine kinase, M-type)	0.65	0.6
THRSP (thyroid hormone responsive)	0.86	0.62
RPL9 (ribosomal protein L9)	1.56	0.53
RAD18 (RAD18 E3 ubiquitin protein ligase)	0.96	0.94
